From the supplement of paper PMC5949888
Most values lie at the floor of the assay. Slopes are relative: functional sequences can read slightly below zero.

Tested on: Saccharomyces cerevisiae PS128 hsf1 delta, HSF1(1-493) fusion
Assay: growth estimate (transactivation domain function in HSF1 fusion, heat-shock survival) (a.u. (slope of normalised read count over time)); higher = stronger growth at 37°C, i.e. more transactivation activity
Details: library: random library

Row | Substance | growth estimate
1 | LINIEIKLKCELKDMTKRGK | < -0.25
2 | LINL | < -0.25
3 | LIPAGTSSDLDTRLRYCTLG | < -0.25
4 | LIPASRSKAVGRAREPGHMC | < -0.25
5 | LIPGT | < -0.25
6 | LIQNEGRAASV | < -0.25
7 | LIRDAAGGVSRLRGHMPALA | < -0.25
8 | LIREEVIYACAPPGTLVSAN | < -0.25
9 | LISTAEVEPIYRVKHFSSAP | < -0.25
10 | LITYSHTRIWMVLCLFSV | < -0.25
11 | LIVARELTLILHWTLAVG | < -0.25
12 | LIVDIPPFTQLV | -0.187
13 | LIVHLRRSCQHLRLFNMQRG | < -0.25
14 | LIVLGLRLARRMTQTANASR | < -0.25
15 | LIVPPWAIMLHFFCPMGSE | < -0.25
16 | LIWPGRHLIRRKGAKHQFPP | < -0.25
17 | LIYSTERLVPRRVRDRLPGP | < -0.25
18 | LKATYRAYGVRRGEISSLPP | < -0.25
19 | LKAVECVTSPT | < -0.25
20 | LKAYPSASGLRVRLLAPLKV | < -0.25
21 | LKGCKLRGACFIR | < -0.25
22 | LKGGSEDIRR | < -0.25
23 | LKGKIDFTAAI | < -0.25
24 | LKGQ | < -0.25
25 | LKGQRFHTYGSWVIGYSAVV | < -0.25

Row | Substance | growth estimate
26 | LKGSQPISPRCGCTQWGRVA | < -0.25
27 | LKGSWAPSLD | -0.0394
28 | LKHRKWQVEVSCICSRTRQQ | < -0.25
29 | LKIMEAFDVCFFQLVWDQGR | < -0.25
30 | LKKLSTAFLTGRQ | < -0.25
31 | LKKQAVGASLRNG | < -0.25
32 | LKKTIGAEVYSGTPSTSHP | < -0.25
33 | LKLLLDACCMKQVYAIYRRI | < -0.25
34 | LKLMDRRYKLTEKQHLPLGS | < -0.25
35 | LKLPSHSVVRKLLMLADSEG | < -0.25
36 | LKPFLNNSSQVRAGGLWQLP | < -0.25
37 | LKPYTGSALI | < -0.25
38 | LKQGLCRLGSSRVDHLRLDV | < -0.25
39 | LKSAGQSA | < -0.25
40 | LKSKVRVRM | < -0.25
41 | LKSPFSILSVVKSAWSCVSA | < -0.25
42 | LKVASLV | < -0.25
43 | LKVGRGTRLRLGEVPLVLNG | < -0.25
44 | LKVPPGQCEGCRPIKSKQRG | < -0.25
45 | LKWGQVFNRENPP | < -0.25
46 | LKYSYEGICPPGYGLSQIGR | < -0.25
47 | LLAD | < -0.25
48 | LLALWSDMSEI | < -0.25
49 | LLARSR | < -0.25
50 | LLATSLVSLIVPTSATQNAW | < -0.25

Row | Substance | growth estimate
51 | LLAWQVIAM | < -0.25
52 | LLD | < -0.25
53 | LLDAGPAEIRNFRS | < -0.25
54 | LLDEGLVASAHLLISIILVS | < -0.25
55 | LLDLVT | < -0.25
56 | LLDVVANVRQ | < -0.25
57 | LLETARTKLGCSMLDRKSHP | < -0.25
58 | LLFYIRRRRWLAKRRE | < -0.25
59 | LLGGTLSAA | < -0.25
60 | LLGK | < -0.25
61 | LLGLQLIQTWESHESPSP | -0.231
62 | LLGNSASSVIMQVGHASRAA | < -0.25
63 | LLGRPKDSPGRFWTRLSELG | < -0.25
64 | LLGSGVRSYGCLGNECTP | < -0.25
65 | LLGTRQFLNIATDMQGERSE | < -0.25
66 | LLHAVRPIFVLHRTPLYAR | < -0.25
67 | LLHLERVLKFQALGCLKVRC | -0.243
68 | LLHRSGDAKLSDWGCCLTVS | < -0.25
69 | LLIICAARGLEQAANA | < -0.25
70 | LLIIRGLDQPGPACKFCLST | < -0.25
71 | LLKTLL | -0.186
72 | LLLIWTSPAILAFRFSLSET | < -0.25
73 | LLLPLDSF | -0.228
74 | LLLPSYLFS | < -0.25
75 | LLLREAGLVISSLVGPGLFR | < -0.25

Row | Substance | growth estimate
76 | LLLRKCANSTSQVRGLMRNG | < -0.25
77 | LLLRRARRPKASLQGHNITG | < -0.25
78 | LLLSGP | < -0.25
79 | LLLVAVADWGGGPRQPVIGI | < -0.25
80 | LLNWCGILFGNPEATIRGGV | < -0.25
81 | LLPIASWYIGPGVA | < -0.25
82 | LLPINLARIPSWVERGCSAR | < -0.25
83 | LLPLLRTFRLYMLTLYVRFR | < -0.25
84 | LLPYRLQTYCSVGSATRVLE | < -0.25
85 | LLQEAGAFTLCPVSGGPTNQ | < -0.25
86 | LLQKTP | < -0.25
87 | LLQNIEGCPCARDGSE | < -0.25
88 | LLQNLAKGNDWSWHVCWNIR | < -0.25
89 | LLQRSGSDVGLYRAS | -0.173
90 | LLRARDCPSRLTSAYSSDIP | < -0.25
91 | LLREISVWVQAFW | < -0.25
92 | LLRNPAHGFFPTQTDANRGR | < -0.25
93 | LLRRLPSCQ | < -0.25
94 | LLRRNYDGPMCRLRSAVDQG | < -0.25
95 | LLRS | < -0.25
96 | LLRV | < -0.25
97 | LLRVLTGAAGIKRFAKQRH | < -0.25
98 | LLS | < -0.25
99 | LLSA | < -0.25
100 | LLSEIIIGK | < -0.25

Random excerpt: three entries already listed.
Row | Substance | growth estimate
94 | LLRRNYDGPMCRLRSAVDQG | < -0.25
92 | LLRNPAHGFFPTQTDANRGR | < -0.25
99 | LLSA | < -0.25

Later entries

Row | Substance | growth estimate
101 | LLSIGSPITRREWSEGGRGH | < -0.25
102 | LLSLAS | < -0.25
103 | LLSLYDTRGLQCICAWPISS | < -0.25
104 | LLSPTGRDST | < -0.25
105 | LLSQCPPAS | < -0.25
106 | LLSSSDFNSPGCSDRYTPIT | < -0.25
107 | LLSVHIGRNLAVVNARGEGS | < -0.25
108 | LLSVSLRIFTAG | < -0.25
109 | LLTPAKGAKADDGGTPRHVH | < -0.25
110 | LLVITLGVCRAH | < -0.25
111 | LLVSYV | < -0.25
112 | LLVWTNTFGLA | < -0.25
113 | LLWDA | < -0.25
114 | LLY | < -0.25
115 | LLYGKMDRSKKPKADARISG | < -0.25
116 | LLYLRKSVNWRF | < -0.25
117 | LMAGGNSCDPTR | < -0.25
118 | LMDDAPERVRGDRMCTCPFL | < -0.25
119 | LMDH | < -0.25
120 | LMESFTCTAVSVGR | < -0.25
121 | LMFDSRPTN | < -0.25
122 | LMLREGKFIITAPIRSGRIT | < -0.25
123 | LMNHRVTLFKGFKSG | < -0.25
124 | LMNTGRSRAIQSRPGLHSMT | < -0.25
125 | LMRAREDQTGHYWSASRERG | < -0.25

Row | Substance | growth estimate
126 | LMSQLNFPVDCPIVEQDRTR | < -0.25
127 | LMVA | < -0.25
128 | LMVAARTTLKDARGQSPVVV | < -0.25
129 | LMVCCKPAPRILAVSSQMAI | < -0.25
130 | LMVLLYDTRRYRVLQPVS | < -0.25
131 | LMVLSWGARGIRGW | < -0.25
132 | LMVS | < -0.25
133 | LMYCLGTSIVGMRFASHLCS | -0.246
134 | LNAAKPDS | < -0.25
135 | LNANPSQVRLAHGIIGGILP | < -0.25
136 | LNAPPMLRKPDWGCQGIHCT | < -0.25
137 | LNAQKVLNLALPP | < -0.25
138 | LNCRLGPEWKECSW | < -0.25
139 | LNDLYASRHIRSA | < -0.25
140 | LNFWECDAGRRVRA | < -0.25
141 | LNGLSA | < -0.25
142 | LNGQRLVSAENWD | < -0.25
143 | LNIMTWVRKTIWIPVVPRPW | < -0.25
144 | LNIPITD | < -0.25
145 | LNKFR | < -0.25
146 | LNKIPGSKQGS | < -0.25
147 | LNKVKQEGVK | < -0.25
148 | LNLLWCVDGVAITVATRFDH | < -0.25
149 | LNLRKDLSRWRTHPAVQFIA | < -0.25
150 | LNMGVGFQSKGSLSCARRLV | < -0.25

Row | Substance | growth estimate
151 | LNPEALRRDQMIMRASIVPQ | < -0.25
152 | LNPHMVL | < -0.25
153 | LNPRRTLLLSGSVMWRAISP | < -0.25
154 | LNPSRAWFIAGMVIFWLTPR | < -0.25
155 | LNPSSDRHPFLCARTHSATV | < -0.25
156 | LNQGSSILVIRRVDVYHAHV | < -0.25
157 | LNREGNAEYVTELQERAMVL | < -0.25
158 | LNRGDRQAEQSPDMARPGST | < -0.25
159 | LNRGVKPRSLSNGVRTCDGR | < -0.25
160 | LNSCAQFYTDGPLSWDASDI | < -0.25
161 | LNT | < -0.25
162 | LNTEHGPERATKSA | < -0.25
163 | LNTRRIWELHQKVPWRPSLL | < -0.25
164 | LNVCYWFG | < -0.25
165 | LPACCVQYTGGLY | < -0.25
166 | LPACTKSRMILSVFVNVH | < -0.25
167 | LPAL | < -0.25
168 | LPAR | < -0.25
169 | LPAYCSTVFHSWVGRR | < -0.25
170 | LPCCAGE | < -0.25
171 | LPCSYWRRD | < -0.25
172 | LPDGQ | < -0.25
173 | LPELQRVKIIGGVAHICVPS | < -0.25
174 | LPELSALTKTYNNTGPSISC | < -0.25
175 | LPETK | < -0.25

Row | Substance | growth estimate
176 | LPGCCAPR | < -0.25
177 | LPGDYDAACLGVERWRRKAP | < -0.25
178 | LPGGYCLVGRMTPVLFFVAS | -0.219
179 | LPGTSTGHRAV | -0.245
180 | LPIFRNSSLTTEVNNVCE | < -0.25
181 | LPKGGSLRRFCATGWH | -0.0328
182 | LPKLSLWDRSFTWLIPWTTV | < -0.25
183 | LPKQSGA | < -0.25
184 | LPKVTGLGRPFGELMSMV | < -0.25
185 | LPKYSVVYREGLQHFHAPMV | < -0.25
186 | LPLAKSHRKWAAWKRSLTLD | < -0.25
187 | LPLIGEFRTLQELIDRSRNY | < -0.25
188 | LPLIGVLLAWRFHVQGDLCI | < -0.25
189 | LPLNFQTYWSKETSFKFVSA | < -0.25
190 | LPLPGN | < -0.25
191 | LPLRSADRFKTSMTEREVLT | 0.146
192 | LPLSLAQSH | < -0.25
193 | LPMVGDVPPYLRGSAIQNSA | < -0.25
194 | LPNGRTCSRRASVVLGPYPA | < -0.25
195 | LPNPNSRRLGV | < -0.25
196 | LPPAEWTADLHHITLAIHRW | < -0.25
197 | LPPPVFPVTFT | < -0.25
198 | LPR | < -0.25

Copied from above, entries 178 to 180
Row | Substance | growth estimate
178 | LPGGYCLVGRMTPVLFFVAS | -0.219
179 | LPGTSTGHRAV | -0.245
180 | LPIFRNSSLTTEVNNVCE | < -0.25
